Data from PMC10526654.
Results are given in words; binding and its absence hold for the method and conditions named. Binding seen in cells or lysates may run through a third protein. These calls come from enrichment with a bait or labelling near it, and not all partners need be listed.

By UniProt entry, the sequences of proteins in these tests, tags left out. Residues count along the entry.
UniProt P19474: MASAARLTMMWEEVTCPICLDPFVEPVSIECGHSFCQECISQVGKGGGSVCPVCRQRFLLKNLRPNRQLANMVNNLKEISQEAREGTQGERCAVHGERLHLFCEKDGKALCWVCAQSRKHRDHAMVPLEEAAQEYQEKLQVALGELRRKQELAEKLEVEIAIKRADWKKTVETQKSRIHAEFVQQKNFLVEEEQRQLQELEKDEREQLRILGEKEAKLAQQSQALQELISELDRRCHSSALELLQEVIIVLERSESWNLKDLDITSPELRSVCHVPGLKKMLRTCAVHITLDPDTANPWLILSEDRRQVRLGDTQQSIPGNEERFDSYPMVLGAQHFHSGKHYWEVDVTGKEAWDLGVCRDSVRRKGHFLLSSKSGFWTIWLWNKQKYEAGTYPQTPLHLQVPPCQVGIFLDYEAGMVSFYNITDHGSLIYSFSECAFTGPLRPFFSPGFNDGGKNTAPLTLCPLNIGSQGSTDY
UniProt P11047, residues 34-1609: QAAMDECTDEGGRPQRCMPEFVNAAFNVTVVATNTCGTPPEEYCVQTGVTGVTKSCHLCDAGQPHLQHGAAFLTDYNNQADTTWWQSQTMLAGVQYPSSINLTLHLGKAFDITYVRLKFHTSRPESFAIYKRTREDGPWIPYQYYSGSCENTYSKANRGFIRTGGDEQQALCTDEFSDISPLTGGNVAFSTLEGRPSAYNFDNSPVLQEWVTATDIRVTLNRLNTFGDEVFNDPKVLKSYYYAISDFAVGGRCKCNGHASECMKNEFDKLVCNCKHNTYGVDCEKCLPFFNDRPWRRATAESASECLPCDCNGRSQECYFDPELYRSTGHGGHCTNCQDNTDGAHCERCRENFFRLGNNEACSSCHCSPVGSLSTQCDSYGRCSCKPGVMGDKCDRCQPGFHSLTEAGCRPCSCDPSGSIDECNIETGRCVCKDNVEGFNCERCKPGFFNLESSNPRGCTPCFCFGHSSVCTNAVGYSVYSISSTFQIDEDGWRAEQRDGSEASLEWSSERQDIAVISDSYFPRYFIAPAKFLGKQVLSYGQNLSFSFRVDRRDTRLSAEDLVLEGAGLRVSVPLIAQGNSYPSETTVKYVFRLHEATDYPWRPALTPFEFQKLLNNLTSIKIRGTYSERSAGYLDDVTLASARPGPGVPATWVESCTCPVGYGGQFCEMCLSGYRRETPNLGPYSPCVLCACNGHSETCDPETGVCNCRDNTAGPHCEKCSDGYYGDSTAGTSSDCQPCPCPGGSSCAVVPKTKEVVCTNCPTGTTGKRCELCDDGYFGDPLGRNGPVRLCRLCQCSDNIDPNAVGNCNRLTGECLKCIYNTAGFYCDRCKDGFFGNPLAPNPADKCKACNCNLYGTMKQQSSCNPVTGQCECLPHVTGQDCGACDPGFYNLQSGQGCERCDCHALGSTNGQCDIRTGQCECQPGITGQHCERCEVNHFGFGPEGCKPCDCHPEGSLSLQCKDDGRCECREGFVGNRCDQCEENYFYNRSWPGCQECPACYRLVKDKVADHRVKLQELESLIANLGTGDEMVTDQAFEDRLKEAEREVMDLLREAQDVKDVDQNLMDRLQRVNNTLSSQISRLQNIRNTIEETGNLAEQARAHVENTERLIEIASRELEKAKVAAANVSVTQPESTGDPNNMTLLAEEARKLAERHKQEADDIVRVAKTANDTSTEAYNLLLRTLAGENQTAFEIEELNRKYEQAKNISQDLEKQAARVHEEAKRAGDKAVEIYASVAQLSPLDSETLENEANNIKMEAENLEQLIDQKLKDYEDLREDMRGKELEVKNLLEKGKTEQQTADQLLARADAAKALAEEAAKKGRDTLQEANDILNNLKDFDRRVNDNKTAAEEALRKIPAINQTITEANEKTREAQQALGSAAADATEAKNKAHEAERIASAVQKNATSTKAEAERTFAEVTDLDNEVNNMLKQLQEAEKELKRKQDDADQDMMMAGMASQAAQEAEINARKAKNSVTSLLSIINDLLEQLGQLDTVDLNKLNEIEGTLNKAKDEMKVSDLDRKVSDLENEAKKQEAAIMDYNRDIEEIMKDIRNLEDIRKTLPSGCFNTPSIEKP
UniProt Q9UPN9: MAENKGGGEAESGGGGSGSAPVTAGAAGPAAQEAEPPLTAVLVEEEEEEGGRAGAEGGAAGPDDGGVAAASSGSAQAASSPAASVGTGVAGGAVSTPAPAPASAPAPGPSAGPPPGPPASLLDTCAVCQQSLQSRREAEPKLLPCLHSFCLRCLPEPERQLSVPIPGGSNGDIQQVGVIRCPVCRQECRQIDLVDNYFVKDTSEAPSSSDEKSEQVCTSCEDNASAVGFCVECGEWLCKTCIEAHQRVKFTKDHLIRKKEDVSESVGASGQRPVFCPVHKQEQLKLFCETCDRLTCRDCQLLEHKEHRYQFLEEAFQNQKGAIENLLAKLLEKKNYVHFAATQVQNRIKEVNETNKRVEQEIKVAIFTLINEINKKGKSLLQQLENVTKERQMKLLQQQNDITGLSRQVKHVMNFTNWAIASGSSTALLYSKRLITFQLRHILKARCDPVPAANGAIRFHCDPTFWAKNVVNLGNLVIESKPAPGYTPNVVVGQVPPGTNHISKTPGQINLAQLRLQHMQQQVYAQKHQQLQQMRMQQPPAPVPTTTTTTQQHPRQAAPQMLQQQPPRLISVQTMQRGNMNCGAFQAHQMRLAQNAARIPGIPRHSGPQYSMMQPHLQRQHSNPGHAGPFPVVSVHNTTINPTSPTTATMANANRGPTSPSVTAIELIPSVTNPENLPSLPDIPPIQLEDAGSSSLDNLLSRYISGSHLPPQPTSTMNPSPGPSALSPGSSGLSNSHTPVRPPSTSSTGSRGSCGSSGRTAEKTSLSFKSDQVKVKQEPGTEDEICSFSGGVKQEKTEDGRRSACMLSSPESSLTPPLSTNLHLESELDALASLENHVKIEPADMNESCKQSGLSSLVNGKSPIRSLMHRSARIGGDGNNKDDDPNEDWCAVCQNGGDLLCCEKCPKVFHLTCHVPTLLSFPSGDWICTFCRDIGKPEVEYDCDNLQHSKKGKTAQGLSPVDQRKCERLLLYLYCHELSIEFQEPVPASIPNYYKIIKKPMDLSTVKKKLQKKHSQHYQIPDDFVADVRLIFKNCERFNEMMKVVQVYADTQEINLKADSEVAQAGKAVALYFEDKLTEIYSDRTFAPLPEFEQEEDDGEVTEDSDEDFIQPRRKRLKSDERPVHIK

Molecular target: HA-TRIM21 (in GBM cells) (UniProt P19474)
Experiment: affinity purification with mass spectrometry; TRIM21 immunoprecipitated from U87-MG expressing HA-TRIM21 with anti-HA-conjugated beads; gel pieces digested with trypsin, LTQ-Orbitrap Elite

Substance | binding
LAMC1 (from UniProt P11047 34-1609) | binds
TIF1γ (endogenous in GBM cells) (from UniProt Q9UPN9 1-1127) | binds
